This passage reports binding results from paper PMC7708047, “VEZF1–guanine quadruplex DNA interaction regulates alternative polyadenylation and detyrosinase activity of VASH1”.

Amino acid sequences for entries named in this document (tags omitted). A change or cut given only in a name is not applied to a line headed by its entry. Chains listed by the source or under a name are the forms on record and can include a tag or linker.
UniProt Q7L8A9: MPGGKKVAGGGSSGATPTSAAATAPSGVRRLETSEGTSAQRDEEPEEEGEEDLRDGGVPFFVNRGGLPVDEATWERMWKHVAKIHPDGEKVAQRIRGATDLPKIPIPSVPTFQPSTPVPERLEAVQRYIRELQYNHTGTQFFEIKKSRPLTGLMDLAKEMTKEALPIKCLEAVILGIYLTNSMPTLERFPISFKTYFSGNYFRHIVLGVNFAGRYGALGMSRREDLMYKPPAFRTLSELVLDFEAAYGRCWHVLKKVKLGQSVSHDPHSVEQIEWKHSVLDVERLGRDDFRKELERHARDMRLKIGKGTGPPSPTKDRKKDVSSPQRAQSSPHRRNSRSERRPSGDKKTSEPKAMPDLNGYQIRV
Vasohibin 1, short isoform (VASH1B) (Q7L8A9-2, form named): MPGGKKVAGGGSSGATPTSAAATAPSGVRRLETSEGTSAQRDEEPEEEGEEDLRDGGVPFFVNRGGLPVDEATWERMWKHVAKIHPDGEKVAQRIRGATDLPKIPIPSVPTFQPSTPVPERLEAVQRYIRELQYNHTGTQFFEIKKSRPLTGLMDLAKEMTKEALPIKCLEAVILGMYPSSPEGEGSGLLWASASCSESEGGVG

For the assay, the target named is T1, Small vasohibin-binding protein (SVBP) (UniProt Q8N300).
T1 sequence: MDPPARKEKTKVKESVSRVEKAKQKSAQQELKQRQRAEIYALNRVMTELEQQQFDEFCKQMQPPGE
Kind of assay: co-IP; reciprocal immunoprecipitation followed by immunoblot analysis (called reciprocal pull-down in the text); cells, tags and buffers not described in the methods shown.

Results are given in words; binding and its absence hold for the method and conditions named. In cells and extracts the contact can be indirect. Some results given as binding are weak or reduced against the parent protein; the word gives no strength.

Take “Vasohibin 1, long isoform (VASH1A) (from UniProt Q7L8A9 1-365)”: the binding entry is “binds”.
Turning to “Vasohibin 1, short isoform (VASH1B) (from UniProt Q7L8A9-2 1-204)”, the binding result is listed as “no binding”.
